No constants are given. Whether binding was seen depends on the method and setting. For some of these results: Binding seen in cells or lysates may run through a third protein. Some results given as binding are weak or reduced against the parent protein; the word gives no strength. Where a sequence is shown, tags or fusion partners need not be part of it. One block for each binder: values may come before it.
What was measured:
[1] = biological target: T1, GFP11-mCherry-Mps2 (budding yeast) (UniProt P53159); assay: split reporter
T1 sequence: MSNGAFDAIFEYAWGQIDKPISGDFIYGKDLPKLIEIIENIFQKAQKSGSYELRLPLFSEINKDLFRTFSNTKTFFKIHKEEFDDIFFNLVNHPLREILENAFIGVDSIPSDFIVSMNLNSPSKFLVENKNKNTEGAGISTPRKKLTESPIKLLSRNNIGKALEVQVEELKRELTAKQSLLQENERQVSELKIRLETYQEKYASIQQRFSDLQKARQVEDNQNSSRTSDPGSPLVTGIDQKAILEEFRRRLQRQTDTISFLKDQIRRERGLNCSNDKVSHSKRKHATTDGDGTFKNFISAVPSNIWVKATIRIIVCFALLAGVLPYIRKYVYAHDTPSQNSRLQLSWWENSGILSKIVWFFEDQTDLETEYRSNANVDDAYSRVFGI

[2] = biological target: T2, Bbp1 fused to the GAL4-binding domain (BD) (budding yeast), Q12365; assay: two-hybrid; settings: remark: other sources report otherwise
T2 chain: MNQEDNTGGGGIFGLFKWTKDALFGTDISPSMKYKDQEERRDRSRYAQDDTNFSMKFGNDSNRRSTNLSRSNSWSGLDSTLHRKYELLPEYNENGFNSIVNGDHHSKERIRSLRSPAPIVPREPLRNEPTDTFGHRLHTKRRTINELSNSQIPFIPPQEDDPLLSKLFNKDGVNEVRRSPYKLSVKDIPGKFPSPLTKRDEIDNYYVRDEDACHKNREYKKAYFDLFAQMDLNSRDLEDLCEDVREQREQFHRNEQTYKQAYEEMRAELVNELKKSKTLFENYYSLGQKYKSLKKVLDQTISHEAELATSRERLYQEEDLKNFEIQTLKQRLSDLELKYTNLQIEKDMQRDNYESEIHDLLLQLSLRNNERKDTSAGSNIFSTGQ

[3] = biological target: T3, YFP-Mps3 (budding yeast), P47069; assay: FRET or BRET; settings: remark: other sources report otherwise
T3 chain: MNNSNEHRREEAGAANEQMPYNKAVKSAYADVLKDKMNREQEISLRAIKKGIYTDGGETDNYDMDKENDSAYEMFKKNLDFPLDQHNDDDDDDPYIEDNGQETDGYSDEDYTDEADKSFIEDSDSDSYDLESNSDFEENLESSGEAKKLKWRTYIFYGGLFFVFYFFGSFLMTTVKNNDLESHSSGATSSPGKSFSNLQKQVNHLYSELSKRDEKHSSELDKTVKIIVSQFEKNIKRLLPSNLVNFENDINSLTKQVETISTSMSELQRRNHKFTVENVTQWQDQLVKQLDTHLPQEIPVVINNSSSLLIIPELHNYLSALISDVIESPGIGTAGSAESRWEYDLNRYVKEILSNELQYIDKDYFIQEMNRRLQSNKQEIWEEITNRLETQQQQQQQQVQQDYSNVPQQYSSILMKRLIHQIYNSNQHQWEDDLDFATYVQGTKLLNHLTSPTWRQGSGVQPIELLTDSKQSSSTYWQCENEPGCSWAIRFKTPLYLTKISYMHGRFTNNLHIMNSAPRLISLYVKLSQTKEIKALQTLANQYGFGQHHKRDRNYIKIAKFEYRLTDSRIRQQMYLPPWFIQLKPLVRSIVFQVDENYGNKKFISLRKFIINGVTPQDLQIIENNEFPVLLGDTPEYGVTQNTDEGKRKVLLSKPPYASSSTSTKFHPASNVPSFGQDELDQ

[4] = biological target: T4, GFP11-mCherry-Mps2 (budding yeast), P53159; assay: split reporter; settings: remark: other sources report otherwise
T4 chain: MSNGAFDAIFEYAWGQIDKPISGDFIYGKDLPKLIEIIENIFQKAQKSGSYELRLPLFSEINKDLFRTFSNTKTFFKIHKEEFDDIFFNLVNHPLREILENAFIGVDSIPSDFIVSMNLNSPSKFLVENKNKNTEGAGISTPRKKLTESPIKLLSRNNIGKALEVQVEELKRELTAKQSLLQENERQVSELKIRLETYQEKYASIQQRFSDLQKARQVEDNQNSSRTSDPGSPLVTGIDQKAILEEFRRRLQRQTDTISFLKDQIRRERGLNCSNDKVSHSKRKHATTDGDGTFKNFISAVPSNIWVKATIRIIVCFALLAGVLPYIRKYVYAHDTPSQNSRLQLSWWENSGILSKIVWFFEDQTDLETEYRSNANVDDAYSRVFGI

binding [1]: binds
B1: GFP_(1-10)-Mps3 (protein, UniProt P47069 1-682)
chain: MNNSNEHRREEAGAANEQMPYNKAVKSAYADVLKDKMNREQEISLRAIKKGIYTDGGETDNYDMDKENDSAYEMFKKNLDFPLDQHNDDDDDDPYIEDNGQETDGYSDEDYTDEADKSFIEDSDSDSYDLESNSDFEENLESSGEAKKLKWRTYIFYGGLFFVFYFFGSFLMTTVKNNDLESHSSGATSSPGKSFSNLQKQVNHLYSELSKRDEKHSSELDKTVKIIVSQFEKNIKRLLPSNLVNFENDINSLTKQVETISTSMSELQRRNHKFTVENVTQWQDQLVKQLDTHLPQEIPVVINNSSSLLIIPELHNYLSALISDVIESPGIGTAGSAESRWEYDLNRYVKEILSNELQYIDKDYFIQEMNRRLQSNKQEIWEEITNRLETQQQQQQQQVQQDYSNVPQQYSSILMKRLIHQIYNSNQHQWEDDLDFATYVQGTKLLNHLTSPTWRQGSGVQPIELLTDSKQSSSTYWQCENEPGCSWAIRFKTPLYLTKISYMHGRFTNNLHIMNSAPRLISLYVKLSQTKEIKALQTLANQYGFGQHHKRDRNYIKIAKFEYRLTDSRIRQQMYLPPWFIQLKPLVRSIVFQVDENYGNKKFISLRKFIINGVTPQDLQIIENNEFPVLLGDTPEYGVTQNTDEGKRKVLLSKPPYASSSTSTKFHPASNVPSFGQDELDQ

binding [2]: binds
B2: Ndc1 fused to the GAL4-activation domain (AD), P32500 1-655 (protein)
chain: MIQTPRELLNPRYTYHTIFSDVCKTRFNHLVTRLFFICSIIQTVVISLLALPHSPLWELALAFIPNILALNLVSLLIIVTRKNYMHVKNFGFANSLTFILGQLLSVKFLVYQGVYSMGSILLSFVLGVVFGRGGSGWKPYYKLFIWLVVPTIYNLQHHVTDADKLSFNCENFFQAPQDYVLERVKRIMEKSVILSVISMFVLPIFTTVFFSRQKSGLFDSFTNGVLAVTNLLIISCIIFITFEFINIAFDAHMSIGCLHKGKLISNLSSTPMETLLSGLSADKPFTRLTAYQELAYRATSLDPSLRAPIYHSKFRSSSGNTWSLILNECLKTIQINNEKVVQYLRSVQDLGGSATARHKKKVENLDYMYENGKLTSANERLFGNRPSMMAPLRDNGLLDESPNRLRVRTDDSVLLNRGNKKRHRSSYYDNDLDETTQTFNGSIFTHETTFMTAMRLMLKKLKNSIMSFIFPSYAERQSSDESDNYRLLPNGSNKAQISIIDIWSISKKRQAEKLVPLPICHANSVVALTGLLIRSKTEDPKGGIIASVGDILKTLERSICALGEFADWDPESMAYTAFQTQRTAQDRVQQDSEDEDSMKDTTDMISVLYQLSTSAFMEIVLEYNVALNDVYLDADVAKLANWFLEVYASGNPNAT

binding [3]: no binding
B3: Ndc1-mT2, P32500 1-655 (protein)
chain: MIQTPRELLNPRYTYHTIFSDVCKTRFNHLVTRLFFICSIIQTVVISLLALPHSPLWELALAFIPNILALNLVSLLIIVTRKNYMHVKNFGFANSLTFILGQLLSVKFLVYQGVYSMGSILLSFVLGVVFGRGGSGWKPYYKLFIWLVVPTIYNLQHHVTDADKLSFNCENFFQAPQDYVLERVKRIMEKSVILSVISMFVLPIFTTVFFSRQKSGLFDSFTNGVLAVTNLLIISCIIFITFEFINIAFDAHMSIGCLHKGKLISNLSSTPMETLLSGLSADKPFTRLTAYQELAYRATSLDPSLRAPIYHSKFRSSSGNTWSLILNECLKTIQINNEKVVQYLRSVQDLGGSATARHKKKVENLDYMYENGKLTSANERLFGNRPSMMAPLRDNGLLDESPNRLRVRTDDSVLLNRGNKKRHRSSYYDNDLDETTQTFNGSIFTHETTFMTAMRLMLKKLKNSIMSFIFPSYAERQSSDESDNYRLLPNGSNKAQISIIDIWSISKKRQAEKLVPLPICHANSVVALTGLLIRSKTEDPKGGIIASVGDILKTLERSICALGEFADWDPESMAYTAFQTQRTAQDRVQQDSEDEDSMKDTTDMISVLYQLSTSAFMEIVLEYNVALNDVYLDADVAKLANWFLEVYASGNPNAT

binding [4]: binds
B4: Ndc1-GFP_(1-10), P32500 1-655 (protein)
chain: MIQTPRELLNPRYTYHTIFSDVCKTRFNHLVTRLFFICSIIQTVVISLLALPHSPLWELALAFIPNILALNLVSLLIIVTRKNYMHVKNFGFANSLTFILGQLLSVKFLVYQGVYSMGSILLSFVLGVVFGRGGSGWKPYYKLFIWLVVPTIYNLQHHVTDADKLSFNCENFFQAPQDYVLERVKRIMEKSVILSVISMFVLPIFTTVFFSRQKSGLFDSFTNGVLAVTNLLIISCIIFITFEFINIAFDAHMSIGCLHKGKLISNLSSTPMETLLSGLSADKPFTRLTAYQELAYRATSLDPSLRAPIYHSKFRSSSGNTWSLILNECLKTIQINNEKVVQYLRSVQDLGGSATARHKKKVENLDYMYENGKLTSANERLFGNRPSMMAPLRDNGLLDESPNRLRVRTDDSVLLNRGNKKRHRSSYYDNDLDETTQTFNGSIFTHETTFMTAMRLMLKKLKNSIMSFIFPSYAERQSSDESDNYRLLPNGSNKAQISIIDIWSISKKRQAEKLVPLPICHANSVVALTGLLIRSKTEDPKGGIIASVGDILKTLERSICALGEFADWDPESMAYTAFQTQRTAQDRVQQDSEDEDSMKDTTDMISVLYQLSTSAFMEIVLEYNVALNDVYLDADVAKLANWFLEVYASGNPNAT

Source: paper doi:10.1101/413799
